# Out of some 320,000 compounds screened, about 620 (0.19%) were called active. The shares of active, inactive and inconclusive entries below differ from those in the screen. No stated cut-off is given here; in the data, active means activation above about 80%; inconclusive means between about 30% and that limit; inactive means weaker than that.
# Sequences of proteins named here, by UniProt entry; tags and fusion partners are left off.
# UniProt Q8NER1, whole entry, looked up: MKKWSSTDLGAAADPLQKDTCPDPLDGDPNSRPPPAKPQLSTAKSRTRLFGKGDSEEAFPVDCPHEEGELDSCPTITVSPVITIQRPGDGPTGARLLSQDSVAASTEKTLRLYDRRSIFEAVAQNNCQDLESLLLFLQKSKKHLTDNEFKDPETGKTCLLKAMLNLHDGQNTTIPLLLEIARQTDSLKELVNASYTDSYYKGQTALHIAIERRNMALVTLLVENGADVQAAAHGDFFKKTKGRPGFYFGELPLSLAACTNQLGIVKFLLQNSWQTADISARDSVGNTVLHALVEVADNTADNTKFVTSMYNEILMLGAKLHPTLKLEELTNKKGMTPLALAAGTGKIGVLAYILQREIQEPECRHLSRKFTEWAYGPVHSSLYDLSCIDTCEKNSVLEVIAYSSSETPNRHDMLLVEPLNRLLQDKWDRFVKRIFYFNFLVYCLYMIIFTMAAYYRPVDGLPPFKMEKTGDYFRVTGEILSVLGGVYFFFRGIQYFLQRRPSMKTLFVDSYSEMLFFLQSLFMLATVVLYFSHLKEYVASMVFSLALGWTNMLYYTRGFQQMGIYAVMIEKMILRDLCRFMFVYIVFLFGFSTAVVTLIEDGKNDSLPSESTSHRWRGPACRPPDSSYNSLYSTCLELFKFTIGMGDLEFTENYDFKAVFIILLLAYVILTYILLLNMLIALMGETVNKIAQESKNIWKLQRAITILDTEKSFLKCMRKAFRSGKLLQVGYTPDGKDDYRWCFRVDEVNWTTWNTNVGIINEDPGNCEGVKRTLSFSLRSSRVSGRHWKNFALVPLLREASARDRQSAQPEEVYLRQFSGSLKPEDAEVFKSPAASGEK
# Target: Transient receptor potential cation channel subfamily V member 1 (Homo sapiens) (UniProt Q8NER1)
# Experiment: HTS Assay for Compounds that Act as Agonists of the Vanilloid Receptor 1; further: 0% is about no effect
# Conditions: TRPV1-expressing cells, Fluo-8 calcium influx, agonist mode; at 8.33 µM, stronger effect = higher value
# From the text: The transient receptor potential ion channel, family V, number 1, (TRPV1) is one of the most important molecular transducers of painful stimuli and a potential target for analgesic drug development. Although recent clinical trials with orthosteric antagonists have not produced a successful drug because of a hyperthermia side effect and their tendency to block thermal noxious pain, this ion channel is undeniably well placed in the pain pathway, and the idea of blocking pain signals before they enter the CNS is an excellent concept and of proven efficacy when TRPV1 agonists are used. We propose a new approach involving allosteric modulation to impose an activity-dependent constraint within the context of inflammation and tissue damage that would alter the responsiveness of the channel in a way that an orthosteric vanilloid antagonist cannot achieve. We believe that the allosteric modulator approach has not been explored for this target. The main goal of this proposal is to identify additional, new, potent allosteric modulators of TRPV1 that can be used to investigate TRPV1 function. Our recent report provides evidence of proof of concept, but the compounds are just at the edge of utility in terms of potency. […] The question of whether they can be used as analgesic agents is complex, but if suitable compounds are identified then testing for analgesic properties will be conducted. NIH Chemical Genomics Center [NCGC] NIH Molecular Libraries Probe Centers Network [MLPCN] MLPCN Grant: MH089480-1A1 Assay Submitter (PI): Michael Iadarola, National Institute of Dental and Cranofacial Research
# Upon TRPV1 activation in TRPV1 cells, the channel opens and extracellular cations flow through the channel into the cytosol. A calcium binding dye (Fluo-8) becomes fluorescent when bound to calcium. This dye is pre-loaded into cells and is used as a marker for calcium influx. The amount of accumulated calcium is precisely quantified using the FDSS kinetic reader and the calcium dye. For the HTS assay, freshly prepared cells are plated at a density of 2000/well in 3 ul medium in 1536-well plates and cultured overnight at 35.5C. Cells will be loaded with 1 ul of the homogeneous calcium dye (ABD Bioquest) at room temperature for 40 to 90 minutes. Plates will be loaded into the FDSS kinetic reader and a 1 sec / cycle for 10 second baseline signal will be measured. Compound library will then be added with a pintool at 23 nl and measured kinetically for 3 minutes. This portion of the read is considered the agonist portion of the screen. Following the 3 minutes of incubation, an on board pipettor will deliver 1 ul of capsaicin for a final concentration equal to the EC20. Signal will be measured kinetically for an additional 2 minutes. This portion of the read is considered the allosteric enhancer portion of the screen. The FDSS reader has a standard filter set capable of measuring calcium bound Fluo-8 (ex=480 and em=520 nm).
row,SMILES,activation
1,Cc1ccc(N(C(=O)CNC(=O)c2ccco2)C(C(=O)NC2CCCCC2)c2cccnc2)cc1 (stereo unspecified),inactive: 3.4%
2,O=C1c2cccc3c(O)ccc(c23)C(=O)N1Cc1ccccc1,inconclusive: 67.5%
3,CCn1cc(CNC(=O)CCSc2nc(-c3ccco3)cc(C(F)(F)F)n2)cn1,inconclusive: 37.6%
4,O=C(c1ccc(NS(=O)(=O)c2ccccc2)cc1)N1CCCC1,inactive: -1.02%
5,COc1ccccc1N1CCN(C(=O)c2cc(C3CC3)on2)CC1,inconclusive: 37.8%
6,CN1C(=O)c2ccc(S(=O)(=O)c3ccc(C(=O)O)cc3)cc2C1=O,inactive: 5.02%
7,COC(CNC(=S)Nc1ccc([N+](=O)[O-])cc1)OC,inconclusive: 37.4%
8,Cc1ccc(SCC(=O)NCCc2ccccc2)cc1,inconclusive: 32.6%
9,CC(=O)N1CCCC(C(=O)c2ccc3c4c(cccc24)CC3)C1 (stereo unspecified),inconclusive: 42.5%
10,Cc1ccc(SC(C)C(=O)NCc2ccc(F)cc2)cc1 (stereo unspecified),inconclusive: 57.3%
11,O=C(NCc1ccc(F)cc1)c1cc2ccccn2n1,inconclusive: 33.1%
12,CN(C)S(=O)(=O)c1cccc(-c2nnc(-c3ccccc3)o2)c1,inconclusive: 48.3%
13,Cc1ccc(O)c(C(=O)c2cc(C#N)c(=O)n(-c3c(C)n(C)n(-c4ccccc4)c3=O)c2)c1,inactive: -0.645%
14,CC(CCc1ccccc1)NC(=O)/C=C/c1ccccc1 (stereo unspecified),inconclusive: 56.1%
15,COc1cc(C)c(NC(=O)c2cc(C3CC3)nc3c2cnn3C(C)C)cc1OC,inconclusive: 47.7%
16,Cc1cccc2sc(N3CCN(C(=O)c4cccs4)CC3)nc12,inconclusive: 58.3%
17,COc1ccc(-c2n[nH]c(=S)n2-c2cc(OC)ccc2OC)cc1,inactive: 1.43%
18,S=C(Nc1ccc(Cl)c(Cl)c1)NC1CCN(Cc2ccccc2)CC1,inactive: 6.86%
19,O=C(Nc1cccc(F)c1)Nc1ccccn1,inactive: 6.77%
20,COc1ccc(CC2(CO)CCN(Cc3ccc4c(c3)CCO4)CC2)cc1,inactive: 6.98%
21,COCCCNC(=O)c1ccc2c(=O)n(CC3CCCO3)c(=S)[nH]c2c1 (stereo unspecified),inactive: 1.48%
22,CC1CCN(C(=O)COC(=O)Cc2ccc(Br)cc2)CC1,inconclusive: 50.5%
23,CC(C)=CCC/C(C)=C/COc1c2ccoc2cc2oc(=O)ccc12,inconclusive: 33.4%
24,CCOC(=O)c1sc(NNC(=O)c2ccc(C)cc2)nc1C,inactive: 2.72%
25,CNC(=O)COC(=O)c1ccccc1Nc1ccccc1,inconclusive: 50.9%
26,CCOC(=O)C(CSCC(=O)c1ccc(Cl)cc1Cl)NC(=O)OC(C)(C)C (stereo unspecified),inconclusive: 42.7%

# 3 structures out of the list, ordered by number of heavy atoms, ascending:
row,SMILES,activation
8,Cc1ccc(SCC(=O)NCCc2ccccc2)cc1,inconclusive: 32.6%
9,CC(=O)N1CCCC(C(=O)c2ccc3c4c(cccc24)CC3)C1 (stereo unspecified),inconclusive: 42.5%
6,CN1C(=O)c2ccc(S(=O)(=O)c3ccc(C(=O)O)cc3)cc2C1=O,inactive: 5.02%
